Results are given in words; binding and its absence hold for the method and conditions named. In cells and extracts the contact can be indirect. Some entries that bind do so weakly or less than the wild type.
What was measured:
[1] = biological target: FZD4 (human (endogenous in MCF-7)) (UniProt Q9ULV1); experiment: proximity ligation; in situ PLA on fixed, permeabilised MCF-7 cells (adherent and tumorsphere cultures); mouse anti-WNT10B and rabbit anti-FZD4/5/6 primary antibodies; also after treatment of the cells with IWP-2 (0, 3, 5, 7 uM), which lowered the signals dose-dependently
[2] = biological target: FZD5 (human (endogenous in MCF-7)) (UniProt Q13467); experiment: as above
[3] = biological target: FZD4 (human (endogenous in MCF-7)) (UniProt Q9ULV1); experiment: co-IP; MCF-7 cell lysate, 100 ug protein; immunoprecipitation with anti-FZD4, anti-FZD5 or anti-FZD6 antibodies on Protein G Sepharose, 4 °C; immunoblot
[4] = biological target: FZD5 (human (endogenous in MCF-7)) (UniProt Q13467); experiment: as above

Chains of the proteins cited; added tags and fusions are not shown. Residues count along the entry.
UniProt Q9ULV1, residues 37-537: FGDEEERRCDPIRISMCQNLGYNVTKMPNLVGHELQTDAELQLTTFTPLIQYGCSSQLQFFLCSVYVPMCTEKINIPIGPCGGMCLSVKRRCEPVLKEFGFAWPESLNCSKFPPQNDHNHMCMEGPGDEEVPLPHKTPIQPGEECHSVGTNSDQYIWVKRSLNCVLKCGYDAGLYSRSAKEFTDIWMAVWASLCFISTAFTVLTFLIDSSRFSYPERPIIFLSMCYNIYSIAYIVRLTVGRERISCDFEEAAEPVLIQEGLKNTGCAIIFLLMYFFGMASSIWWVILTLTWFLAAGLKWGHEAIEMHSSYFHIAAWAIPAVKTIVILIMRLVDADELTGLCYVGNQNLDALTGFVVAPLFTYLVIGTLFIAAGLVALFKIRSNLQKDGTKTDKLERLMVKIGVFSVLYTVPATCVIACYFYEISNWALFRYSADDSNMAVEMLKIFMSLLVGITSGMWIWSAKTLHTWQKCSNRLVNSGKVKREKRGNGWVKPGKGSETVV
UniProt Q13467, residues 27-585: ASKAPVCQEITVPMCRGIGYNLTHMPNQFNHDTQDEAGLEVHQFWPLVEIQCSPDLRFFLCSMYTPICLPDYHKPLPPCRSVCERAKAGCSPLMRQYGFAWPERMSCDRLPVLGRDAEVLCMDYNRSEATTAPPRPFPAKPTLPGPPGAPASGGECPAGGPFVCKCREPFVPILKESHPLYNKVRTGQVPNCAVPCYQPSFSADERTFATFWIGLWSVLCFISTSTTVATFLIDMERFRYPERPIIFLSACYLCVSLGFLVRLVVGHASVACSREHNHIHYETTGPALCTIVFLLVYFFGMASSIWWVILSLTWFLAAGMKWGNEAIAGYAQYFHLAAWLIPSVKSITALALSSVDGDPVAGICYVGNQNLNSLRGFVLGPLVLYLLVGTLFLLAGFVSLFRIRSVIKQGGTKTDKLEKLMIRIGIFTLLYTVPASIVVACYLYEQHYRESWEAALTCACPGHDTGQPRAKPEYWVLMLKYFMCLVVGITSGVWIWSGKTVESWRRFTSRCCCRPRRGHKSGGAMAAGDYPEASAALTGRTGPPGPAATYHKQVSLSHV
UniProt O00744, residues 29-389: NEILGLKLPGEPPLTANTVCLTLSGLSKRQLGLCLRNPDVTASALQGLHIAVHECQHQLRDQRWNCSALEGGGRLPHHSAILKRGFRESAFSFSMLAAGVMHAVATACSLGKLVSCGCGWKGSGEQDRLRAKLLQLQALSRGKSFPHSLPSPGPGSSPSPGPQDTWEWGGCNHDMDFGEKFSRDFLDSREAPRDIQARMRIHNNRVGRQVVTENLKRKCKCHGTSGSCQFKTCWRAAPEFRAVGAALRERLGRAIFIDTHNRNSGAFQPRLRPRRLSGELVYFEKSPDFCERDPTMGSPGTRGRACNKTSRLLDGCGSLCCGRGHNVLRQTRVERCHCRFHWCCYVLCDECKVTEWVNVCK

Measured: binding

WNT10B (from UniProt O00744 29-389) (ligand)
binds: [1] | [2] | [3] | [4]

From publication PMC5112549
